Measured values reported in patent US20260242482A1 (ONO PHARMACEUTICAL, published 2026).
No constants are given. Whether binding was seen depends on the method and setting. Some entries that bind do so weakly or less than the wild type.

Columns and labels:
D26V/Y56F/E58V = test: flow cytometry, IIAdL1-CD80 cells expressing the PD-L1 mutant, soluble PD-1-EC; upper graph
E58G = test: as above
E58K/A69E = test: as above
E58K/E60K = test: as above
[1] = target: V54E/E58G/Q63R/E72G/C113Y; test: as above
V54E = test: as above
V54G/E58G = test: as above
Y56C/C113Y = test: as above
Y56C = test: as above
Y56F/E58G = test: as above
Y56G = test: flow cytometry, IIAdL1-CD80 cells expressing the PD-L1 Y56 point mutant, soluble PD-1-EC; lower graph
Y56S = test: as above
Y56W = test: as above

Measured: binding

B1: soluble mouse PD-1 extracellular region (PD-1-EC) protein (receptor)
chain: LEVPNGPWRSLTFYPAWLTVSEGANATFTCSLSNWSEDLMLNWNRLSPSNQTEKQAAFCNGLSQPVQDARFQIIQLPNRHDFHMNILDTRRNDSGIYLCGAISLHPKAKIEESPGAELVVTERILETSTRYPSPSPKPEGRFQDYKDDDDK
notes: domain: five-stranded coiled coil domain; Soluble chimeric protein from 293T or Plat-E culture supernatant; also called mouse PD-1-EC; mPD-1; not shown: five-stranded coiled coil domain of cartilage oligomer matrix protein (Terskikh et al. 1997), fused to the C-terminus
binds: D26V/Y56F/E58V | E58G | E58K/A69E | E58K/E60K | [1] | V54E | V54G/E58G | Y56C/C113Y | Y56C | Y56F/E58G | Y56G | Y56S | Y56W
